The values that follow come from article PMC6495647.

By UniProt entry, the sequences of proteins in these tests, tags left out. Residues count along the entry.
UniProt P02769, residues 25-607: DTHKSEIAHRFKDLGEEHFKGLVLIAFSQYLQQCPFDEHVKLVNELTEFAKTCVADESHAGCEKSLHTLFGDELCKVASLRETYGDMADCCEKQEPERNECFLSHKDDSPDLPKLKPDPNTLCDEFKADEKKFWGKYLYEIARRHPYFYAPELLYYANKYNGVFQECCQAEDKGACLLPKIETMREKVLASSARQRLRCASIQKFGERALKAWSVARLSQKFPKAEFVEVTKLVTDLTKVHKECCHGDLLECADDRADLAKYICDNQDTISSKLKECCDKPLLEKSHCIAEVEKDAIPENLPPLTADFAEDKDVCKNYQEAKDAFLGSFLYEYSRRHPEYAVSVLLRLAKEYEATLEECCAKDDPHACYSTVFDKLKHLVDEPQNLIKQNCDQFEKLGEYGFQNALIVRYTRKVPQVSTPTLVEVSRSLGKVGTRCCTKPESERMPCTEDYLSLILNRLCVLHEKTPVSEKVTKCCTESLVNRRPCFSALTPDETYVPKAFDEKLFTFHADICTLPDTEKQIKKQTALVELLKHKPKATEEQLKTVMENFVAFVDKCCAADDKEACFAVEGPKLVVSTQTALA

These are yes or no findings as the source states them, for the method shown.

In assay [1] the target is Bovine serum albumin (bovine) (UniProt P02769). In words: SPR; BIAcore 2000; BSA, RecA, MucA’ or β amine-coupled on CM5 chip in four flow cells; refolded MucB (usually 0.1 μM) injected at 30 μl/min in HBS with 1% Surfactant P20; BSA cell subtracted; 25 °C; both purified.
Assay [2] has as its target MucB protein (plasmid pKM101 (host species not stated)) (UniProt P07375). In words: SEC; refolding of denatured MucB on Superdex 200 HR 10/30 in NAT refolding buffer (20 mM HEPES, 100 mM monopotassium glutamate, 500 mM L-arginine, 10% glycerol, 2 mM DTT, 0.1 mM EDTA, 0.5% Tween 20, pH 7.3); LMW peak; both purified.

B1: MucB protein (enzyme, UniProt P07375 1-420)
chain: MFALIDVNGMYASCEQAFRPDLANRAVAVLSNNDGNIVARNYLAKKAGLKMGDPYFKVRPIIERHNIAIFSSNYTLYASMSARFAAVVESLASHVEQYSIDELFVDCKGITAAMSLDAFGRQLREEVRRHTTLVCGVGIARTKTLAKLCNHAAKTWPATGGVVALDDGARLKKLMSILPVAEVWGVGHRTEKALATMGIKTVLDLARADTRLIRKTFGVVLERTVRELRGEACFSLEENPPAKQQIVVSRSFGQRVETLTDMQQAVTGFAARAAEKLRNERQYCRVISVFIRTSPYSVRDTQYANQATEKLTVATQDSRTIIQAAQALARIWREDIAYAKAGVMLADFSGKEAQLDLFDSATPSAGSEALMAVLDGINRRGKNQLFFAGQGIDNSFAMRRQMLSPDYTTDWRSIPIATIK
On to B1, for which the results for the binding entry in assay [1] and in assay [2] were “no binding (tested: MucB usually 0.1 μM)” and “no binding (tested: about 25 μg/ml)”, respectively.
